# Results published in PubChem BioAssay AID493014 (National Center for Advancing Translational Sciences (NCATS), 2011).
# Some of the results follow. Shown are side measurements of this screen, not its main read-out; they come without a call. The list favours compounds with an active or inconclusive main result. Words in brackets tell the shape of the fitted curve; partial curves, single points and poor fits give uncertain potencies.
# Assay: qHTS Assay to Find Inhibitors of Chronic Active B-Cell Receptor Signaling
# Settings: ABC-DLBCL IkBa-CBG/CBR reporter, luminescence ratio (green luciferase fused to IkBa over red control in TMD8 lymphoma cells), 4 h
# Procedure, shortened: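 Doxycycline induced both beetle luciferases in TMD8 lymphoma cells; IKK-driven degradation limits the IkappaBalpha-fused green signal, while red luminescence normalises for cell number and nonspecific effects. Compounds tested up to 46 uM, 4 hrs.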
# [1] = measured here: CBR red luminescence, cell number
# [2] = measured here: IkBa-CBG green luminescence
Compound,AC50 [1],AC50 [2]
CC1CC1C(=O)Nc1nc(-c2ccccn2)cs1 (stereo unspecified),"0.366 µM [rising, full curve, poor fit]",
COc1ccc(-c2noc(CCC(=O)N3CCN(c4ccccc4F)CC3)n2)cc1,"29.1 µM [rising, partial curve, poor fit]",
Cc1ccc(C)c(NC(=O)CN(C)C(=O)CN2C(=O)C3CCCCC3C2=O)c1 (stereo unspecified),"16.4 µM [falling, single point]",
CCCCCC(=O)N/N=C/c1cccs1,"3.98 µM [rising, full curve, poor fit]",
O=C(CCNC(=O)c1ccco1)Nc1cccc(C(F)(F)F)c1,"8.91 µM [rising, partial curve, poor fit]",
O=C(CC(SCc1ccco1)c1ccc(O)cc1)c1cccs1 (stereo unspecified),"35.5 µM [falling, single point]",
CCOc1ccccc1-c1c2cc(O)c(=O)cc-2oc2cc(O)c(O)cc12,"29.1 µM [rising, single point]",
CC(=O)N(C)/C=C1\Sc2ccccc2C1=O,"12.6 µM [falling, partial curve, poor fit]",
COC(=O)c1ccc(N=NN2CCCCCC2)cc1,"29.1 µM [rising, single point]",
COc1ccc(Nc2cc(O)c3ncccc3c2)cc1,"14.6 µM [falling, partial curve, poor fit]",
COc1cc(C(=O)Sc2ccc(Cl)cc2)cc(OC)c1OC,"3.16 µM [falling, partial curve, poor fit]",
COc1ccccc1CNC(=O)c1ccc(SC)cc1OC,"6.31 µM [falling, full curve, poor fit]",
O=C(Nc1nc2ccc(S(=O)(=O)N3CCCC3)cc2s1)C1CCCCC1,,"29.1 µM [falling, single point]"
COCCN1C=C2C(=O)C(C)(OC(=O)CCc3ccccc3)C(=O)C=C2C=C1c1ccc(C#N)cc1 (stereo unspecified),"0.0891 µM [rising, full curve, poor fit]",
CC(NC(=O)C(=O)NCC1CCCO1)c1ccccc1 (stereo unspecified),"14.1 µM [rising, single point]",
CCOC(=O)CCc1c(C)nc2cc(-c3ccccc3OC)[nH]n2c1=O,"16.4 µM [falling, partial curve]",
COc1ccc(OC)c(-c2csc(NC(=O)Cc3ccccc3)n2)c1,"20 µM [rising, partial curve, poor fit]",
COC(=O)CSc1nc2c(c(-c3ccco3)c1C#N)CCCC2,"22.4 µM [falling, single point]",
O=C(N/N=C/c1ccccc1Cl)c1cccc(F)c1,"25.1 µM [falling, single point]",
O=C(Cn1c(COc2ccccc2)nc2ccccc21)Nc1cc(Cl)c(Cl)cc1Cl,"12.6 µM [falling, partial curve, poor fit]",
NC(=O)CSc1n[nH]c(=O)n1CCc1ccccc1,"8.91 µM [rising, partial curve]",

# Shown with bars between the fields: entries from further up
Compound | AC50 [1] | AC50 [2]
CC(=O)N(C)/C=C1\Sc2ccccc2C1=O | 12.6 µM [falling, partial curve, poor fit] | 
COC(=O)c1ccc(N=NN2CCCCCC2)cc1 | 29.1 µM [rising, single point] | 

# (cont.)

Compound,AC50 [1],AC50 [2]
COc1cccc(C(=O)Nc2cc(NC(=O)c3cccs3)ccc2C)c1,"17.8 µM [falling, partial curve, poor fit]",
CCOC(=O)C1=C(COC(=O)C(CC)c2ccccc2)NC(=O)NC1C (stereo unspecified),"14.6 µM [falling, partial curve]",
CCOC(=O)c1cc(CC)sc1NC(=O)c1ccc2c(c1)OCCO2,"3.26 µM [rising, single point]",
CC1(C)CC(NC(=O)CC2CCCCC2)CC(C)(C)N1,"35.5 µM [falling, single point]",
Nc1ccc2nn(-c3cccc4ccccc34)nc2c1,"0.708 µM [falling, partial curve, poor fit]",
CC(C)(C)NC(=O)C[C@H]1C[C@H](C(=O)N2CCOCC2)[C@@]2(CCC3CCCC3)c3[nH]c4ccc(Cl)cc4c3CCN2C1=O,"10.3 µM [falling, partial curve, poor fit]",
O=S(=O)(NCC(c1ccc2c(c1)OCO2)N1CCOCC1)c1ccc(Cl)cc1 (stereo unspecified),"3.26 µM [rising, single point]",
COc1ccc(-c2nc(-c3ccc4c(c3)OCO4)[nH]c2-c2ccc(OC)cc2)cc1,"16.4 µM [falling, partial curve]","29.1 µM [rising, partial curve, poor fit]"
Cc1cc(=O)oc2cc(OCc3ccc(C(=O)OCC(=O)Nc4ccc(N(C)C)cc4)cc3)ccc12,"5.01 µM [falling, partial curve, poor fit]",
COc1ccc(N(CC(=O)N2CC=C(c3ccccc3)CC2)S(=O)(=O)c2c(C)noc2C)cc1,"14.1 µM [rising, partial curve, poor fit]",
Cn1nccc1C(=O)Nc1sc2c(c1C(N)=O)CCCC2,"2.24 µM [rising, partial curve, poor fit]",
CC(NC(=O)Nc1ccc(Cl)cc1)c1ccccc1 (stereo unspecified),"1.26 µM [rising, full curve, poor fit]",
COc1cccc(N=Cc2c(O)c3ccccc3oc2=O)c1,"7.08 µM [falling, partial curve, poor fit]",
O=C(CN1C(=O)COc2ccccc21)Nc1ccc(F)cc1,"1.41 µM [falling, partial curve, poor fit]",
Cc1cccnc1NC(=O)Nc1cccc(C(F)(F)F)c1,"0.651 µM [rising, full curve, poor fit]",
CCc1nc2oc3cc(OC)ccc3c(=O)c2c(=O)n1Cc1ccco1,"7.08 µM [falling, partial curve]",
C=C(C)C(=O)OCC(O)COc1ccc(C(C)(C)c2ccc(OCC(O)COC(=O)C(=C)C)cc2)cc1 (stereo unspecified),"7.31 µM [falling, partial curve]",
Cn1ncc2c(Nc3cccc4ccccc34)ncnc21,"29.1 µM [falling, single point]",
CCS(=O)(=O)N1Cc2ccccc2CC1C(=O)Nc1nc2ccc(F)cc2s1 (stereo unspecified),"0.82 µM [falling, full curve]","23.1 µM [rising, partial curve, poor fit]"
C/C(=N\NC(=O)c1cccnc1)c1ccc(C)c([N+](=O)[O-])c1,"25.1 µM [falling, single point]",
COc1ccc(-n2cnc3cc(NS(=O)(=O)c4ccc(C)cc4)ccc32)cc1,"14.6 µM [falling, partial curve]",

Compound,AC50 [1],AC50 [2]
O=C(NCC1CCCN(C2Cc3ccccc3C2)C1)c1cccs1 (stereo unspecified),"3.55 µM [falling, partial curve, poor fit]",
Fc1ccc(Nc2c3c(nc4ccccc24)CCC3)cc1,"14.1 µM [falling, single point]",
Nc1c(C(=O)Nc2ccc3c(c2)OCCO3)nnn1Cc1cccc(Br)c1,"16.4 µM [falling, single point]",
CCOc1ccc(NC(=O)C(Cc2ccccc2)N2C(=O)c3cccc4cccc(c34)C2=O)cc1 (stereo unspecified),"14.1 µM [falling, single point]",
CCN(CC)C(=O)C1CCCN(C(=O)Nc2ccc3nsnc3c2)C1 (stereo unspecified),"35.5 µM [falling, single point]",
O=S(=O)(NCc1ccc(Cl)cc1)c1cnc[nH]1,"23.1 µM [falling, single point]",
CCOC(=O)C1CCN(C(=O)c2cc3cc4ccc(OC)cc4nc3o2)CC1,"1.78 µM [falling, full curve]",
O=C(NCc1ccccn1)c1c(O)c2cccc3c2n(c1=O)CC3,"35.5 µM [falling, single point]",
CC(=O)OCC(OC(C)=O)C(OC(C)=O)C(OC(C)=O)C(=O)Nc1cccc(C)c1 (stereo unspecified),"0.112 µM [rising, full curve, poor fit]",
O=S(=O)(c1ccc2c(c1)CCC2)N1CCNCC1,"25.9 µM [rising, partial curve, poor fit]",
CCOC(=O)C1=C(C)N=c2s/c(=C3/C(=O)Nc4ccccc43)c(=O)n2C1c1ccc(C)cc1 (stereo unspecified),"18.4 µM [falling, partial curve, poor fit]",
Nc1ccc(C(=O)N/N=C/c2cn(Cc3ccccc3F)c3ccccc23)cc1,"4.47 µM [falling, partial curve]",
COc1ccc(-c2cn3c(C)c(C(=O)Nc4cc(NC(C)=O)ccc4OC)sc3n2)cc1,"11.6 µM [falling, partial curve]",
CC(C)Cc1ccc(-c2cc(=O)[nH][nH]2)cc1,"22.4 µM [falling, partial curve, poor fit]","20 µM [falling, single point]"
CCOC(=O)N1CCN(C(=O)c2cc3c(-c4cccc(OC)c4)nn(C)c3s2)CC1,"25.1 µM [falling, partial curve, poor fit]",
CSc1nsc(SCC(=O)Nc2ccccc2C(N)=O)n1,"0.501 µM [rising, full curve, poor fit]",
CC(C(=O)NC1C=CS(=O)(=O)C1)N1C(=O)/C(=C/c2cccc(Cl)c2)SC1=S (stereo unspecified),"22.4 µM [falling, partial curve, poor fit]",
Nc1c(C(=O)CSc2nnc(COc3ccc(Cl)cc3)o2)c(=O)[nH]c(=O)n1C1CC1,"1.3 µM [rising, full curve]",
CC(C)c1ccc(NC(=O)c2n[nH]c(=O)c3ccccc23)cc1,"0.447 µM [rising, full curve, poor fit]",
COc1ccc(CCNc2nc(-c3sc(C)nc3C)cs2)cc1OC,,"32.6 µM [rising, partial curve, poor fit]"
COc1ccc(OC)c(NC(=O)Nc2nnc(N3CCCCC3C)s2)c1 (stereo unspecified),"12.6 µM [falling, single point]",
